For four substances, binding results are on record in PMC12329598.

Sequences of proteins named here, by UniProt entry; tags and fusion partners are left off. A change or cut given only in a name is not applied to a line headed by its entry.
UniProt P47736: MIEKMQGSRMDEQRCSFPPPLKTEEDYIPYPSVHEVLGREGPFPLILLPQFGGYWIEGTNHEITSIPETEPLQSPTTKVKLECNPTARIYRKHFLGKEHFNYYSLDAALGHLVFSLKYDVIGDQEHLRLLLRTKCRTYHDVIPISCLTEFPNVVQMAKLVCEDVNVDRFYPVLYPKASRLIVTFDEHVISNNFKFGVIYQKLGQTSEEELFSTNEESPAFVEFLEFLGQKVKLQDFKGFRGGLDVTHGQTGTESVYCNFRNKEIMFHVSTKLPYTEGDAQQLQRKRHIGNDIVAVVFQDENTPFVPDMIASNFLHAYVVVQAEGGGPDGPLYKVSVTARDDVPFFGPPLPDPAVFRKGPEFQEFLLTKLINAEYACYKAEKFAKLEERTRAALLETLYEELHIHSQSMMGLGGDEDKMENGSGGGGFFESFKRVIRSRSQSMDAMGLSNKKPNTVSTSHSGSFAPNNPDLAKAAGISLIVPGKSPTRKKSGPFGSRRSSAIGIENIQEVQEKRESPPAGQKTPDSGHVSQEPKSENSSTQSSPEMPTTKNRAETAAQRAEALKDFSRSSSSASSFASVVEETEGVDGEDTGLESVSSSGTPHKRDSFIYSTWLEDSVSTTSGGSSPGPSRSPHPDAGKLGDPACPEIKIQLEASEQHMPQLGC
UniProt P09471: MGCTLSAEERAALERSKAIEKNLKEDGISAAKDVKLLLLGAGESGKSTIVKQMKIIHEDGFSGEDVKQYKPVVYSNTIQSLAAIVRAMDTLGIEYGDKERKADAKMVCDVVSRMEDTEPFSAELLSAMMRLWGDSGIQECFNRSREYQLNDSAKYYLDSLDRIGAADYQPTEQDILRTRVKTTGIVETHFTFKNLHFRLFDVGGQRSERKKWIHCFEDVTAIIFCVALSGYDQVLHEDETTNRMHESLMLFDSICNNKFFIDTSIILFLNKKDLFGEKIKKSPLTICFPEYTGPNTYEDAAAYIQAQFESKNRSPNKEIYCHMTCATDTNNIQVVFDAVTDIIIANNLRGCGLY

One experiment has as its target 2xFlag-Rap1GAP1a (human) (UniProt P47736). The experiment can be described thus: co-IP; Flag-Rap1GAP1a co-expressed with HA-Gαo^(WT) or HA-Gαo^(Q205L) in A293 cells; modRIPA lysate; M2-Flag magnetic beads 2 h at 4 °C; Flag peptide elution; HA blot.
For experiment [1], the target named is 2xFlag-Rap1GAP1a SmBiT (human) (UniProt P47736). The experiment can be described thus: split reporter; Rap1GAP1a SmBiT (600 ng) co-transfected with HA-Gαo LgBiT (200 ng) in HEK cells, 24 h; live cells in HBSS with 10 μM furimazine; luminescence at 37 °C.

Results are given in words; binding and its absence hold for the method and conditions named. Binding seen in cells or lysates may run through a third protein. Some binding calls cover weakened binding; strength is not graded here.

On to “HA-Gαo^(Q205L) (from UniProt P09471 1-354)”, for which the binding entry in the experiment with 2xFlag-Rap1GAP1a (human) was “binds”.

Regarding “HA-Gαo^(Q205L) LgBiT (from UniProt P09471 1-354)”, in experiment [1], the binding result is given as “binds”.

Take “HA-Gαo^(Q205L/A221D) LgBiT (from UniProt P09471 1-354)”: the binding result in experiment [1] was “binds”.

Take “HA-Gαo^(Q205L/N242T) LgBiT (from UniProt P09471 1-354)”: the binding entry in experiment [1] is recorded as “binds”.
